Measurements from publication doi:10.1101/2022.07.24.499430.
Results are given in words; binding and its absence hold for the method and conditions named. In cells and extracts the contact can be indirect. Some results given as binding are weak or reduced against the parent protein; the word gives no strength. Sequences can lack the tags named with a protein.

By UniProt entry, the sequences of proteins in these tests, tags left out.
UniProt Q07812, whole entry: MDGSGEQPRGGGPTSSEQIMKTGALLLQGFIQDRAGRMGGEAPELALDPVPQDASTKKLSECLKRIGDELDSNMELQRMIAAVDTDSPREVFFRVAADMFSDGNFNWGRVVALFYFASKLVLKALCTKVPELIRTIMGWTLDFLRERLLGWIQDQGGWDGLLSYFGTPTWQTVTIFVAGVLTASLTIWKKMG
UniProt Q16611, whole entry: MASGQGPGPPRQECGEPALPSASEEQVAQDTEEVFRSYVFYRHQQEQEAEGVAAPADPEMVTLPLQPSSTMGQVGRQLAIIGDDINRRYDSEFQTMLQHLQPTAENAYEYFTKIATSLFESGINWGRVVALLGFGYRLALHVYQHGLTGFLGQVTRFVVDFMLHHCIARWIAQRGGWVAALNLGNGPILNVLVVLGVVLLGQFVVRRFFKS

Target: T1, HA-tagged wildtype BNIP5 (Bcl-2 interacting protein 5) (not stated (human or mouse cDNA cloned)) (UniProt P0C671)
T1 sequence: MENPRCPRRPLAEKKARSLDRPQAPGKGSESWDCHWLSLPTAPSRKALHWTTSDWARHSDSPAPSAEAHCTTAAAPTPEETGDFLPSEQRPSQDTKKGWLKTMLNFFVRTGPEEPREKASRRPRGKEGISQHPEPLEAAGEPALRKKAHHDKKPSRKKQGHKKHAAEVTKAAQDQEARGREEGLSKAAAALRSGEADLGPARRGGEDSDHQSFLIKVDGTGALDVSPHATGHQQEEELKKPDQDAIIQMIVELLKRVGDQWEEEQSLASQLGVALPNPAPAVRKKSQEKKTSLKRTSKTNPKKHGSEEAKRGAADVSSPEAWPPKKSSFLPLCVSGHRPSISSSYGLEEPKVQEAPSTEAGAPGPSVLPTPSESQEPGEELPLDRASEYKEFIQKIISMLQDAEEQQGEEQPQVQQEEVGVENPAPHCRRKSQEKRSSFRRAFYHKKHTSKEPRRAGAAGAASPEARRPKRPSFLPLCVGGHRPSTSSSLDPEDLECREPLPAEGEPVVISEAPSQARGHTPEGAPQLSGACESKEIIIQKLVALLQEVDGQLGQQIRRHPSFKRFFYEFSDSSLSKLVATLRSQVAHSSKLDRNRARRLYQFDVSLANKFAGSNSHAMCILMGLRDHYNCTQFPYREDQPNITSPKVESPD
Assay: co-IP

binding | Substance
no binding | Bax (Bcl-2 associated x) in HEK293T (from UniProt Q07812 1-192)
binds | Bak (Bcl-2 antagonist killer), endogenous in HEK293T (from UniProt Q16611 1-211)
